The supplement of paper PMC10849652
This is one part of the list. Residues, ends and D or L forms follow the SMILES beside them. *: point of attachment. Cbz = O=C(OCc1ccccc1)*

Chains of the proteins cited; added tags and fusions are not shown. Lines headed by an entry give the natural chain unless they say otherwise; changes in a name come on top.
UniProt Q9H900: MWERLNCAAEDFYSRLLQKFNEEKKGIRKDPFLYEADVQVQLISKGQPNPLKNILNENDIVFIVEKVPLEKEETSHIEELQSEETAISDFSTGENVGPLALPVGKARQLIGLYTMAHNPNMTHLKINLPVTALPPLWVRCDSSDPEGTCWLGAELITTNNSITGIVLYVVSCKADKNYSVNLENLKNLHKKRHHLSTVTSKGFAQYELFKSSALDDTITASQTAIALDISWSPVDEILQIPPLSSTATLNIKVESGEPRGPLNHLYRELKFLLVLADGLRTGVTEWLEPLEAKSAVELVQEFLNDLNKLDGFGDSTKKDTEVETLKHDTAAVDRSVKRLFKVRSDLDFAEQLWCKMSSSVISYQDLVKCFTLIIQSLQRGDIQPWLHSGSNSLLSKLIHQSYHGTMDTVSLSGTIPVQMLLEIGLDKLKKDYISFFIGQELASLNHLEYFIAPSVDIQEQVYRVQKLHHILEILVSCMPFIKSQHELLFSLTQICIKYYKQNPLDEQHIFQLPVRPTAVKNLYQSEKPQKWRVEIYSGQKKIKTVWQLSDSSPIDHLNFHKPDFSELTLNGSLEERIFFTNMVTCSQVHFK
UniProt O95229: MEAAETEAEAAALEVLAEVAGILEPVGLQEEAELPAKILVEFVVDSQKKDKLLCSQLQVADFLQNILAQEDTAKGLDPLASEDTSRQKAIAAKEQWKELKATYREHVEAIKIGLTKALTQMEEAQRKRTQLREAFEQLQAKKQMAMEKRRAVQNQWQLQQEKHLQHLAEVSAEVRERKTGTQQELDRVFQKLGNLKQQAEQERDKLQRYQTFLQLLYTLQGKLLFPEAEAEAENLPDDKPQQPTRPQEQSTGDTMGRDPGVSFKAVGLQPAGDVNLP
UniProt Q9C0D3: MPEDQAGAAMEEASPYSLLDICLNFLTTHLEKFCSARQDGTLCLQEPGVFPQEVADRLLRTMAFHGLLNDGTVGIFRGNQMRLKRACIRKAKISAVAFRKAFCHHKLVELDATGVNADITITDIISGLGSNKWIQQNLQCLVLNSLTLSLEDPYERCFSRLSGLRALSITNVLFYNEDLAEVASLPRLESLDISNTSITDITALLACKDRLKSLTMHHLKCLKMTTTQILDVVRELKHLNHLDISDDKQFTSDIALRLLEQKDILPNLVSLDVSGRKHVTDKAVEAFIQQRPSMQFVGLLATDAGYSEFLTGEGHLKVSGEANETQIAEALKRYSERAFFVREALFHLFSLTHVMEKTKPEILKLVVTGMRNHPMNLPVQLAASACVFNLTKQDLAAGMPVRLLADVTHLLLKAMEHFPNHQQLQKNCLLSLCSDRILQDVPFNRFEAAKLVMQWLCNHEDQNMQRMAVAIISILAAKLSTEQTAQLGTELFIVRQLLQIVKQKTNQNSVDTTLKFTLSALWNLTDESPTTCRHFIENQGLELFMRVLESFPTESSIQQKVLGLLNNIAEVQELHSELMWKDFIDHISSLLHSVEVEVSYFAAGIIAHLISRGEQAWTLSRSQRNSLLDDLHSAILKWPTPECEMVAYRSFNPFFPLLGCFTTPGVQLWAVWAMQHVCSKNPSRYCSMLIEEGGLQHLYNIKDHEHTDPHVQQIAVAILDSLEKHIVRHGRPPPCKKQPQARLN
UniProt Q15942: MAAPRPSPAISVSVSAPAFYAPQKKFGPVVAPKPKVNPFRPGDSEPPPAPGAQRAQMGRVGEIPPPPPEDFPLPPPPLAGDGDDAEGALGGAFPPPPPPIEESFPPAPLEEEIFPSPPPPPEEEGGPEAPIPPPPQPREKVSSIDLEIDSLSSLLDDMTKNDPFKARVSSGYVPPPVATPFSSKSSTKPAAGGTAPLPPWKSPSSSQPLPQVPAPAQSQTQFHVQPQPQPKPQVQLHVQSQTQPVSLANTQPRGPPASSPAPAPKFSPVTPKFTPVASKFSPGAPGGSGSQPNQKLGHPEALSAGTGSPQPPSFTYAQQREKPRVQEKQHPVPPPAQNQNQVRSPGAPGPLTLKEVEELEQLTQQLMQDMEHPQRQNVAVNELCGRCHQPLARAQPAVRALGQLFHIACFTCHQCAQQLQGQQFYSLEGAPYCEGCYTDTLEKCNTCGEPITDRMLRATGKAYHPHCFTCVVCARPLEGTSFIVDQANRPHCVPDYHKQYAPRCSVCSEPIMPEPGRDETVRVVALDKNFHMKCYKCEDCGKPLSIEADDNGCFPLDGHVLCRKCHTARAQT
UniProt O43149: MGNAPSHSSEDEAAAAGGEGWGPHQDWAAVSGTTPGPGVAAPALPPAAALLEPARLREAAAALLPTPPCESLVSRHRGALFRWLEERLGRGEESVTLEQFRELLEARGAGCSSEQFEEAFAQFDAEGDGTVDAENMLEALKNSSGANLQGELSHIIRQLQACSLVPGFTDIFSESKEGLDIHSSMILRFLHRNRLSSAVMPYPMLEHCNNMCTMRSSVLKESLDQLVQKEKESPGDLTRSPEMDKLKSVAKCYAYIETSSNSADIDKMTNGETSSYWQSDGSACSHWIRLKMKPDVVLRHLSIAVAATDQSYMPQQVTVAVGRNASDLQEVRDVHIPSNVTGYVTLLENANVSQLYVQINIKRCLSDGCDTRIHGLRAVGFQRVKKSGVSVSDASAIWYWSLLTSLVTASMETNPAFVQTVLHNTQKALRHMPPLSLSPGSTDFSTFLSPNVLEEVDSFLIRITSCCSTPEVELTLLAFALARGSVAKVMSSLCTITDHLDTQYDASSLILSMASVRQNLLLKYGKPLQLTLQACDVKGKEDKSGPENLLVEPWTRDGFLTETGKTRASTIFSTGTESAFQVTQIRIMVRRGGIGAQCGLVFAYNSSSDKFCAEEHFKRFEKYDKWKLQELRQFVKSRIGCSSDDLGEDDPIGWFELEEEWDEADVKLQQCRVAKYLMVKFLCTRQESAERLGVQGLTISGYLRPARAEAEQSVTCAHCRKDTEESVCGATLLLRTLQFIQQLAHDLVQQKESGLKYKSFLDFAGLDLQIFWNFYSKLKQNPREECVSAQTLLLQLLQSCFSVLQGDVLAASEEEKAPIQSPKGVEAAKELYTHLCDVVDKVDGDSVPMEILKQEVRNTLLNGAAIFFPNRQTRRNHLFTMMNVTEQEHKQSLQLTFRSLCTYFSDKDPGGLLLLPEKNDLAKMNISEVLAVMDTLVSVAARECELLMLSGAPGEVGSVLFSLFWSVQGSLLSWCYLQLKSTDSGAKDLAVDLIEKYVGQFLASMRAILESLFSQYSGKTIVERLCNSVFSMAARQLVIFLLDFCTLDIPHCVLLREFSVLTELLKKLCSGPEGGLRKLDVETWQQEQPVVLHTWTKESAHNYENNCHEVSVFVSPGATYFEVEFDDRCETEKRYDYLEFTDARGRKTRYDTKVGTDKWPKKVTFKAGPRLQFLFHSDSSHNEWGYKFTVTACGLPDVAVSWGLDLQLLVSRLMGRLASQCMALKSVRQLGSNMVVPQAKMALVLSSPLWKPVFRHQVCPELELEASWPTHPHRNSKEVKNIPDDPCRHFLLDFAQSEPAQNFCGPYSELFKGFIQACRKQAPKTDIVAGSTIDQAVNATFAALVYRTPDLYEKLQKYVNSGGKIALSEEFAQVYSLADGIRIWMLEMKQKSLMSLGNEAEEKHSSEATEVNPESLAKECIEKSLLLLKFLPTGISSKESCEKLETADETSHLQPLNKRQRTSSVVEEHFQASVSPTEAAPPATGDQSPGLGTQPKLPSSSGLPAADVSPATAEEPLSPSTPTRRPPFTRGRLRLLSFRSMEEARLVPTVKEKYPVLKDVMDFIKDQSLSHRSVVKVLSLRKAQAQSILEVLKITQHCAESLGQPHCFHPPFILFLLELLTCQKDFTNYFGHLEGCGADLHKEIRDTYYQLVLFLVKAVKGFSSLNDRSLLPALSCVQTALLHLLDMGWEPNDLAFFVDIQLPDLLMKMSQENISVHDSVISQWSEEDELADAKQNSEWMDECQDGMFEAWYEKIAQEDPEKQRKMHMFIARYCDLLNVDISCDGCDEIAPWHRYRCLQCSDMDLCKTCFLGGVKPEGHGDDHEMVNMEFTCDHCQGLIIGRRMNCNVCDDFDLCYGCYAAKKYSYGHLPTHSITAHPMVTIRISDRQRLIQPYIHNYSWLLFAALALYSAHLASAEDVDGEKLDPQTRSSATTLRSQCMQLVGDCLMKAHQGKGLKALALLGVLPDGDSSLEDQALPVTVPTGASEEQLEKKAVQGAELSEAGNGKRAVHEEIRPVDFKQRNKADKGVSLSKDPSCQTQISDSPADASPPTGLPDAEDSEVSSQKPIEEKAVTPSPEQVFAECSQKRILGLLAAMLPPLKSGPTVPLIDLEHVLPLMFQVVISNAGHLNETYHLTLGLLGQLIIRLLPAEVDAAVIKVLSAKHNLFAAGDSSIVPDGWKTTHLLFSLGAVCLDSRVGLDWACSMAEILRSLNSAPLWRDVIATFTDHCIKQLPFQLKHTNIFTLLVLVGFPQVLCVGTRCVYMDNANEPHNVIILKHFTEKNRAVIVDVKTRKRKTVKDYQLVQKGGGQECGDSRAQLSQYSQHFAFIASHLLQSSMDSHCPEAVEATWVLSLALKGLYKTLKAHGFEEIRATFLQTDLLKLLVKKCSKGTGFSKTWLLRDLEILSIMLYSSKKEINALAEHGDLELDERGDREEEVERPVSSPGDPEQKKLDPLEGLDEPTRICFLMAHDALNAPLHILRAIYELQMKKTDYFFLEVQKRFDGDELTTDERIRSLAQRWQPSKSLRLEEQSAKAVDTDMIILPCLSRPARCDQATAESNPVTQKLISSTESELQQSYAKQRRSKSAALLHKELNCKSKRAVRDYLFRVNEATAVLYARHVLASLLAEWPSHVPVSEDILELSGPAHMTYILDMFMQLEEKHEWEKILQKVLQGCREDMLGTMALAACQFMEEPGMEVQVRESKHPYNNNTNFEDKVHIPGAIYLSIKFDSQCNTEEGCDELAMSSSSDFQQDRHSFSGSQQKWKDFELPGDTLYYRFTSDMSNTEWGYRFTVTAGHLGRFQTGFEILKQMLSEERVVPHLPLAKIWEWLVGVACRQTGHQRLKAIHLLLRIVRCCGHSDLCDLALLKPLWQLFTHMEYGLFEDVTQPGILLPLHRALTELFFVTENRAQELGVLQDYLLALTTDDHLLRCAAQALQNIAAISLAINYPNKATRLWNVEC
UniProt Q8IYH5: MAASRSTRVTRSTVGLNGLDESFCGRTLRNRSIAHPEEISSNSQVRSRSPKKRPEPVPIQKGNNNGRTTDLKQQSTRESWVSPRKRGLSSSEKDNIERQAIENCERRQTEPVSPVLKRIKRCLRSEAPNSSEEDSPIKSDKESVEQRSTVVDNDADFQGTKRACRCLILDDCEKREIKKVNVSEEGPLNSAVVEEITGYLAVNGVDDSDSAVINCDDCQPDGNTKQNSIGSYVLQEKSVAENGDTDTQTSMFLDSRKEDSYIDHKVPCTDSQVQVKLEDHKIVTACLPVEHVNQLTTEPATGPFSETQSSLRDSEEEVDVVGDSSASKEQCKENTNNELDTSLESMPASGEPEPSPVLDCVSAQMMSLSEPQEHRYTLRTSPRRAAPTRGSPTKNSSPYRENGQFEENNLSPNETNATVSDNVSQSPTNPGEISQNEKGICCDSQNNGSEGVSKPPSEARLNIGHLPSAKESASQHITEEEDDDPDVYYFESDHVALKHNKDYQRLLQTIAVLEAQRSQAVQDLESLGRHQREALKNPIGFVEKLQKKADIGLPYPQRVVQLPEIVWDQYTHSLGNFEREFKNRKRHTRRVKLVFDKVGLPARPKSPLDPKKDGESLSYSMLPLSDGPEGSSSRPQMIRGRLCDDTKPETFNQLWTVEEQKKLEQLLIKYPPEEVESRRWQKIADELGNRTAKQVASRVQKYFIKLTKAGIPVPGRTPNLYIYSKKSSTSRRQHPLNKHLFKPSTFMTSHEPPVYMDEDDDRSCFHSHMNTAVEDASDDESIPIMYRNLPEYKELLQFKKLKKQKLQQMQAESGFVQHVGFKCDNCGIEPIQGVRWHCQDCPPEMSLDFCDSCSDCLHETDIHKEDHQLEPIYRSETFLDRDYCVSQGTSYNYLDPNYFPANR

Assays:
Assay in all cases: log2 fold change, soluble protein after heating vs DMSO (PISA); higher = thermal stabilisation; K562 cells, 10 uM, 30 min; active = over 0.2 and 3.5 SD of the protein, either way, in both replicates (recomputed)
ZWILCH = ZWILCH (UniProt Q9H900)
Summary of the method: (§1)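 Aliquots of K562 cells (2×10^6 cells/mL) treated with 10 μM compound for 30 min were heated for 3 min over 48°C-58°C. After pooling and extraction in PBS with 0.5% NP-40 at 4°C, soluble protein from a 21,000xg, 90 min spin was quantified by TMTpro 16plex LC-MS/MS with channel sums equalised. Thermal stability is expressed against control samples, from duplicates, as a log2 fold change.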

ZWINT = ZWINT (UniProt O95229)
Summary of the method: as §1

ZYG11B = ZYG11B (UniProt Q9C0D3)
Summary of the method: as §1

ZYX = ZYX (UniProt Q15942)
Summary of the method: as §1

ZZEF1 = ZZEF1 (UniProt O43149)
Summary of the method: as §1

ZZZ3 = ZZZ3 (UniProt Q8IYH5)
Summary of the method: as §1

Measured: log2 fold change

NC1(c2ccc(-c3nc4ccn5c(=O)[nH]nc5c4cc3-c3ccccc3)cc2)CCC1
inactive: ZWILCH -0.097 | ZWINT -0.006 | ZYG11B -0.087 | ZYX 0.007 | ZZEF1 = -0.16

CO[C@H]1C[C@@H]2CC[C@@H](C)[C@@](O)(O2)C(=O)C(=O)N2CCCC[C@H]2C(=O)O[C@H]([C@H](C)C[C@@H]2CC[C@H](n3cnnn3)[C@H](OC)C2)CC(=O)[C@H](C)/C=C(\C)[C@@H](O)[C@@H](OC)C(=O)[C@H](C)C[C@H](C)/C=C/C=C/C=C/1C [zotarolimus]
inactive: ZWILCH 0.046 | ZWINT 0.029 | ZYG11B 0.024 | ZYX -0.027 | ZZEF1 = 0

Cc1ccc(C(=O)N(CCCN)[C@@H](c2nc3cc(Cl)ccc3c(=O)n2Cc2ccccc2)C(C)C)cc1 [ispinesib]
inactive: ZWILCH -0.045 | ZWINT -0.016 | ZYG11B 0.041 | ZYX 0.021 | ZZEF1 = -0.003

FC(F)(F)c1ccc(/C=C/c2nc(COc3ccc(CCCCn4ccnn4)cc3)co2)cc1 [mubritinib]
inactive: ZWILCH 0.037 | ZWINT -0.017 | ZYG11B 0.01 | ZYX 0.021 | ZZEF1 = 0.022

NC(=O)Nc1cc(-c2cccc(F)c2)sc1C(=O)N[C@H]1CCCNC1
inactive: ZWILCH 0 | ZWINT 0.034 | ZYG11B -0.033 | ZYX 0.006 | ZZEF1 = 0.001

Cc1ncc(-c2ccnc(Nc3ccc(S(C)(=O)=O)cc3)n2)n1C(C)C
inactive: ZWILCH 0.071 | ZWINT 0.021 | ZYG11B 0.037 | ZYX 0.015 | ZZEF1 = -0.081

C[C@@H](N)c1ccc(C(=O)Nc2ccnc3[nH]ccc23)cc1
inactive: ZWILCH 0.014 | ZWINT -0.009 | ZYG11B -0.035 | ZYX -0.025 | ZZEF1 = 0.053

CCCCN(Cc1ccc(C(=O)NO)cc1)C(=O)Nc1ccccc1 [Nexturastat A]
inactive: ZWILCH -0.008 | ZWINT 0.036 | ZYG11B -0.011 | ZYX -0.021 | ZZEF1 = 0.002

Cc1nc(Nc2n[nH]c3c2CN(C(=O)N[C@H](CN(C)C)c2ccccc2)C3(C)C)c2sccc2n1
inactive: ZWILCH -0.042 | ZWINT 0.019 | ZYG11B 0.026 | ZYX -0.006 | ZZEF1 = 0.028

CS(=O)(=O)c1ccc(-c2cnc(N)c(C(=O)Nc3ccccc3)n2)cc1
inactive: ZWILCH -0.003 | ZWINT -0.015 | ZYG11B 0.01 | ZYX 0.008 | ZZEF1 = 0.027

Cc1cn(-c2cc(NC(=O)c3ccc(C)c(Nc4nccc(-c5cccnc5)n4)c3)cc(C(F)(F)F)c2)cn1 [nilotinib]
inactive: ZWILCH -0.047 | ZWINT -0.061 | ZYG11B 0.025 | ZYX 0.015 | ZZEF1 = -0.051

Three structures from above, sorted by SMILES length, rising:
NC(=O)Nc1cc(-c2cccc(F)c2)sc1C(=O)N[C@H]1CCCNC1
inactive: ZWILCH 0 | ZWINT 0.034 | ZYG11B -0.033 | ZYX 0.006 | ZZEF1 = 0.001

CS(=O)(=O)c1ccc(-c2cnc(N)c(C(=O)Nc3ccccc3)n2)cc1
inactive: ZWILCH -0.003 | ZWINT -0.015 | ZYG11B 0.01 | ZYX 0.008 | ZZEF1 = 0.027

NC1(c2ccc(-c3nc4ccn5c(=O)[nH]nc5c4cc3-c3ccccc3)cc2)CCC1
inactive: ZWILCH -0.097 | ZWINT -0.006 | ZYG11B -0.087 | ZYX 0.007 | ZZEF1 = -0.16

Following part:

Cc1ccc(-n2nc(C(C)(C)C)cc2NC(=O)Nc2ccc(OCCN3CCOCC3)c3ccccc23)cc1 [doramapimod]
inactive: ZWILCH -0.002 | ZWINT 0.006 | ZYG11B 0.036 | ZYX -0.049 | ZZEF1 = 0.047

CCCS(=O)(=O)Nc1ccc(F)c(C(=O)c2c[nH]c3ncc(-c4ccc(Cl)cc4)cc23)c1F [vemurafenib]
inactive: ZWILCH 0.04 | ZWINT 0.014 | ZYG11B 0.048 | ZYX 0 | ZZEF1 = -0.045

O=C(CCCCCCC(=O)Nc1ccccc1)NO [vorinostat]
inactive: ZWILCH 0.056 | ZWINT -0.009 | ZYG11B 0.053 | ZYX -0.017 | ZZEF1 = 0.1

CN(C)CC(=O)Nc1ccc2[nH]c(=O)c3ccccc3c2c1
inactive: ZWILCH 0.051 | ZWINT -0.019 | ZYG11B -0.003 | ZYX -0.004 | ZZEF1 = -0.037

COc1ccc(Cn2ccc3ccc(C(=O)NO)cc32)cc1
inactive: ZWILCH 0.019 | ZWINT -0.038 | ZYG11B 0.052 | ZYX 0.011 | ZZEF1 = -0.01

CS(=O)(=O)N1CCN(Cc2cc3nc(-c4cccc5[nH]ncc45)nc(N4CCOCC4)c3s2)CC1 [pictilisib]
inactive: ZWILCH -0.026 | ZWINT 0.013 | ZYG11B 0.104 | ZYX 0.006 | ZZEF1 = -0.028

Cc1nc(Nc2ncc(C(=O)Nc3c(C)cccc3Cl)s2)cc(N2CCN(CCO)CC2)n1 [dasatinib]
inactive: ZWILCH -0.05 | ZWINT 0.081 | ZYG11B -0.017 | ZYX 0.027 | ZZEF1 = -0.013

O=C(CCCCCCNC(=O)c1cnc(N(c2ccccc2)c2ccccc2Cl)nc1)NO [citarinostat]
inactive: ZWILCH 0.104 | ZWINT 0.02 | ZYG11B -0.043 | ZYX 0.008 | ZZEF1 = -0.002

O=C1NC(=O)C(c2cnc3ccccn23)=C1c1cn2c3c(cc(F)cc13)CN(C(=O)N1CCCCC1)CC2
inactive: ZWILCH 0.051 | ZWINT 0.002 | ZYG11B 0.019 | ZYX -0.021 | ZZEF1 = -0.001

CC[C@H](C)[C@H](NC(=O)[C@H]([C@@H](C)CC)N(C)C(C)=O)C(=O)N[C@H](C(=O)N[C@@H](CC(C)C)C(=O)[C@@]1(C)CO1)[C@@H](C)O [epoxomicin]
inactive: ZWILCH 0.013 | ZWINT 0.095 | ZYG11B 0.123 | ZYX 0.038 | ZZEF1 = 0.001

CC(C)C[C@@H](C=O)NC(=O)[C@H](CC(C)C)NC(=O)[C@H](CC(C)C)NC(=O)OCc1ccccc1 (Cbz-Leu-Leu-Leu-aldehyde)
inactive: ZWILCH 0.079 | ZWINT 0.085 | ZYG11B 0.042 | ZYX 0.022 | ZZEF1 = 0.012

COC(=O)[C@H](CCSC)NC(=O)c1ccc(NC[C@@H](N)CS)cc1-c1ccccc1
inactive: ZWILCH -0.077 | ZWINT -0.011 | ZYG11B 0.013 | ZYX 0.01 | ZZEF1 = -0.045

CC(C)(C)Cn1c(N)nc2ccc(-c3[nH]c(C(C)(C)C)nc3-c3ccc(F)cc3)nc21 [ralimetinib]
inactive: ZWILCH 0.049 | ZWINT 0.042 | ZYG11B -0.046 | ZYX -0.031 | ZZEF1 = 0.008

Cc1ccc(NC(=O)c2cccc(C(C)(C)C#N)c2)cc1Nc1ccc2ncn(C)c(=O)c2c1
inactive: ZWILCH 0 | ZWINT 0.034 | ZYG11B -0.006 | ZYX -0.008 | ZZEF1 = 0.014

O=C1NC(=O)/C(=C\c2ccc3nccnc3c2)S1
inactive: ZWILCH 0.056 | ZWINT 0.07 | ZYG11B -0.084 | ZYX 0.009 | ZZEF1 = 0.071

CN1CCN(c2nc(C3=C(c4c[nH]c5ccccc45)C(=O)NC3=O)c3ccccc3n2)CC1 [sotrastaurin]
inactive: ZWILCH -0.059 | ZWINT -0.073 | ZYG11B 0.026 | ZYX 0.019 | ZZEF1 = 0.003

COc1cccc2cc(-c3nc([C@H]4CC[C@H](C(=O)O)CC4)n4ncnc(N)c34)[nH]c12
inactive: ZWILCH -0.041 | ZWINT -0.045 | ZYG11B 0.02 | ZYX 0.03 | ZZEF1 = -0.064

CNc1nc(-c2ccc3c(N)n[nH]c3c2)cc(N2C[C@@H](C(=O)NC3CCCCC3)CC[C@H]2C)n1
inactive: ZWILCH -0.037 | ZWINT -0.135 | ZYG11B 0.002 | ZYX -0.036 | ZZEF1 = -0.004

Cc1cccc(CC(=O)N2CCc3c2ccc(-c2cn(C)c4ncnc(N)c24)c3F)n1
inactive: ZWILCH 0.027 | ZWINT -0.003 | ZYG11B -0.031 | ZYX 0 | ZZEF1 = 0.015

CC(=O)c1cnc2ccc(-c3cc(Cl)c(O)c(Cl)c3)nc2c1N[C@H]1CC[C@H](CN(C)C)CC1
inactive: ZWILCH 0.004 | ZWINT 0.084 | ZYG11B 0.004 | ZYX 0.037 | ZZEF1 = 0.032 | ZZZ3 = -0.035

CC(C)c1cnn2c(NCc3ccccc3)cc(NCCCCCCN)nc12
inactive: ZWILCH -0.107 | ZWINT -0.081 | ZYG11B 0.058 | ZYX 0.03 | ZZEF1 = -0.033 | ZZZ3 = -0.016

CCCS(=O)(=O)Nc1ccc(F)c(C(=O)c2c[nH]c3ncc(Cl)cc23)c1F
inactive: ZWILCH 0.016 | ZWINT 0.065 | ZYG11B -0.043 | ZYX 0.021 | ZZEF1 = -0.014 | ZZZ3 = 0.013

COc1cc(C(=O)O)ccc1NC(=O)[C@@H]1N[C@@H](CC(C)(C)C)[C@](C#N)(c2ccc(Cl)cc2F)[C@H]1c1cccc(Cl)c1F [idasanutlin]
inactive: ZWILCH -0.051 | ZWINT -0.028 | ZYG11B 0.01 | ZYX 0 | ZZEF1 = -0.029 | ZZZ3 = 0.028
